# Experimental data taken from PubChem BioAssay AID1347426 (Functional Genomics Laboratory (NCATS/FGL), 2020).
# Out of some 31,000 sequences screened, about 1,400 (4.5%) were called active.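 The calls were made as follows: active = median seed-adjusted z-score above 1 or below -1; inactive = the rest.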 Some of the results follow.
# Experiment: Novel Modifiers of Survival Motor Neuron (SMN) Protein: Gene Identification via Genome-wide siRNA Screen;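 also: luminescence tracks full-length SMN protein made from the SMN2 reporter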
# Settings: HEK293T SMN2-luciferase reporter, siRNA knockdown, 72 h; actives lie on both sides
# Procedure, shortened: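 Genome-wide siRNA screen (10418 genes, 3 siRNAs each, 1 pmol per well) by reverse transfection in HEK293T cells stably carrying an SMN2-luciferase reporter; luminescence after 72 hours, normalized to negative-control siRNA, log10-transformed, MAD-scored.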
row,Sequence,median seed-adjusted z-score
1,GGCCCUACGAUUAACUGAATT against CCT4,inactive: -0.413
2,CAAAGAACUGCAUAGCGUATT against KLRD1,inactive: 0.876
3,GUCUUUCACAGAAACGAAATT against RAD9B,inactive: 0.0879
4,CCCACCAAAUUGCACAAUATT against KLF13,inactive: -0.501
5,GCAGUGAUCAUAAUUCUCATT against SLC7A1,inactive: 0.445
6,CACCCUUUUUGUCAGAUUATT against SKAP1,inactive: -0.00637
7,GGCAUGUUCUCUGACCUGATT against LINGO2,inactive: 0.123
8,GGUCGGUACUGGAAGUUCATT against SLC5A3,inactive: -0.0305
9,UGAUUUACCUGAGCUGUAATT against GSTT2,inactive: 0.0298
10,AGAUCUCGUGGUUCUGGAATT against RPUSD1,inactive: 0.327
11,GGACUUUGUGAAGUUGUUATT against CRYZL1,inactive: 0.0481
12,CAACUGCUAGCUGAACGAATT against ITIH2,inactive: 0.262
13,AACUACCUUCAACUCCAUATT against FKSG30,inactive: -0.292
14,AGGUCAAGCUGCGCACAGATT against AGAP2,inactive: 0.0934
15,CCUCCAUGCAUACACCAGATT against RDH8,inactive: -0.657
16,CCUAUUCACUUUACACUGUTT against AKR7A2,inactive: 0.192
17,GCAUCGUGAGUGGUACGUUTT against APOL6,inactive: -0.167
18,AACUGAACAUAGCAGAAUUTT against ZNF85,active: -1.01
19,CAUCGCCUAUCCAACCUUATT against SLC5A1,inactive: -0.812
20,GCCGGAAUGCCUUACCAGATT against PKIB,inactive: 0.147
21,CAGAUUGUCUAGAUCCAGATT against CDC2L5,inactive: 0.314
22,GGUAGAAAAUCGAUACCAATT against ATRN,inactive: -0.28

row,Sequence,median seed-adjusted z-score
1,AGUUGUACCUGGAGAAUGATT against PARP10,inactive: -0.454
2,GCCUUAUACCAACCGGUUATT against PKNOX2,inactive: 0.0976
3,GUGCGAUUCUGGAUGACAATT against EVI1,inactive: 0
4,CCAUAAUGCGGGAACGCAATT against CDH19,inactive: -0.409
5,GCAGUUCGUCUUCAGCUUUTT against DUSP4,inactive: -0.176
6,GCAUCGUGAGUGUCAAUUATT against SIM2,inactive: -0.19
7,GCCUAUUAUGGACAACAAUTT against IKZF2,inactive: 0.514
8,AAGUUGAAAAGGAAGCAAATT against SIP1,inactive: -0.443
9,GGCCCUACGUAAUAGGCUATT against BUB1,inactive: 0.566
10,GGAAAUAGCCUUCAACAGATT against GK5,inactive: -0.118
11,GCAAUGGUCUCAUCAAGGUTT against RPS16,inactive: 0
12,CUAUUAGGUUGACCAAUAATT against OSGEPL1,inactive: -0.708
13,ACAAUGUCGCAAUCACAUUTT against MCART1,inactive: -0.605
14,GGAAAGACAUGUAAGAGCATT against BMP8B,inactive: 0
15,CUAAGAUUCUGGUCAAUAUTT against OXSM,inactive: 0.22
16,GCAAAUGGUUGGAAAUUAATT against RBM9,inactive: 0.895
17,CCACAACACCCAACAUGAATT against GATAD2B,inactive: 0.218
18,GCUAUUCAGUCAUAAUCAATT against CXCR6,inactive: 0.71
19,AGAGUGAAUUUAAGGACAUTT against GJB2,inactive: -0.408
20,GCAAAGCCGAUGUCCAGAATT against AARS,inactive: 0
21,UGGAGUAAAUGAUAAGAUATT against TRIM45,inactive: -0.0974
22,GGUCUAGUACAGGAGAAUATT against GABRA3,inactive: -0.281

row,Sequence,median seed-adjusted z-score
1,CGGGAAGAAUCAAAGUCGATT against KRT23,inactive: -0.0696
2,CGAAGACGAUUUCAACAAATT against MAP4K4,inactive: 0.474
3,CAUCAGGAAUGGAAUUACATT against SKIL,inactive: -0.868
4,GCAUGUUGCAGGACCAUAATT against TXNDC11,inactive: 0.642
5,GGCACAUGGUUAACCUGGATT against GPX4,active: -1.18
6,GCUCGAGUCUUACUAAACATT against ZNF682,inactive: -0.155
7,CACUCUUAACGGGACCUUUTT against BDKRB2,inactive: -0.311
8,GCAGGACAGUUCAACCUAATT against RASAL2,inactive: 0
9,GGCCUAUCAUUUAACUCAATT against GPR126,inactive: -0.243
10,GGGUGGUAAAGCUAAAUGATT against AHCYL1,inactive: 0
11,CAUCUGUGACGGGAACUUUTT against MMP14,inactive: -0.0145
12,CAAUGAUGGAAGCACCGAATT against BDP1,inactive: -0.0359
13,CCAGUUUCAUUAUACAUCATT against ZNF211,inactive: -0.173
14,GGAAAACAAGCUCAUCAAUTT against HOXA6,inactive: -0.282
15,CACUUACUGAAGACGAAUATT against AGTR2,inactive: 0.204
16,GCAUCUACGAGUAUGUGGATT against PRPF31,inactive: -0.592
17,GCAUCGACCUGAUUCACAATT against AP3B2,active: -2.45
18,GGGUAGUACCUAAUAAUCATT against RCN2,inactive: -0.112
19,GCAUGAUCUUUAGCCGAGATT against CHSY3,inactive: -0.113
20,CAAGUUCAGUCGUCCCAAATT against MYOZ3,inactive: 0.16
21,CAAUGAAUCAGAAACGAAUTT against TCF7L2,inactive: 0.189
22,CCUGCAUCCUCAUGGGUUATT against SLC5A2,inactive: -0.0782

# Fetched one by one from the list above (seven):
row,Sequence,median seed-adjusted z-score
2,GCCUUAUACCAACCGGUUATT against PKNOX2,inactive: 0.0976
14,GGAAAACAAGCUCAUCAAUTT against HOXA6,inactive: -0.282
19,GCAUGAUCUUUAGCCGAGATT against CHSY3,inactive: -0.113
2,CGAAGACGAUUUCAACAAATT against MAP4K4,inactive: 0.474
18,GCUAUUCAGUCAUAAUCAATT against CXCR6,inactive: 0.71
9,GGCCUAUCAUUUAACUCAATT against GPR126,inactive: -0.243
2,CAAAGAACUGCAUAGCGUATT against KLRD1,inactive: 0.876

# (further entries)

row,Sequence,median seed-adjusted z-score
1,GAAUGAGAUAUGGUAUAGATT against F12,inactive: 0.345
2,CCCAUAUGCUUGUGACGGATT against NPAS2,inactive: 0.222
3,GCUUCAUGACAUCCGCAAATT against CTSL3,active: 1.07
4,CCUGUGAGCUAAUCUUUGATT against IVD,inactive: -0.147
5,GCACUUACACCUGCACAAATT against SRPX2,inactive: 0.101
6,CAACAGCUGUGAUCACAGUTT against CDH1,inactive: -0.24
7,GGGAGAUUAUUUGUUUGAATT against SRPK2,inactive: 0.654
8,GCUCUACGGCUCACACUAATT against KIF14,inactive: 0
9,ACUUCAACGUGACCACAGATT against PNPLA6,inactive: 0.309
10,CAAACACUCUGACAGUUAUTT against ZNF592,inactive: 0.0774
11,GGCUUAUGAAGACCAAACATT against AK3,inactive: -0.0313
12,GAUAUUCUCUGUGACGUGATT against BACH2,inactive: 0
13,CGACGGAUCUUUUCGCUGUTT against FBN2,inactive: 0.373
14,AGUAUGGACUGAAAAUGAATT against PA2G4,inactive: -0.803
15,CGAGGAAGUUUAUCUGCGATT against TRPV1,inactive: -0.12
16,GGAUGAACGUGCUAGAACATT against NLRC4,inactive: -0.00107
17,CGGCGUCUCUACUACGUCUTT against CLEC11A,active: -1.1
18,GGACCGAAGUCAAUGGUUUTT against SMC2,inactive: -0.052
19,UCCCUAUGUUCACCACCAATT against TAL1,inactive: -0.165
20,GCACCACGGUCUUCACUCUTT against EDG1,inactive: -0.316
21,GAAAGAUCACUGAAUUGCATT against UGT1A10,inactive: 0.286
22,CAAUGAACACUACUAACCATT against IL31RA,inactive: 0.36

# Copied from the list.
# Under median seed-adjusted z-score, ACUUCAACGUGACCACAGATT against PNPLA6 has the entry inactive: 0.309
# Under median seed-adjusted z-score, CAAUGAACACUACUAACCATT against IL31RA has the entry inactive: 0.36

# (further entries)

row,Sequence,median seed-adjusted z-score
1,GCCUUUACUUGGUCCUCAUTT against ZNF595,inactive: 0.102
2,CCGAGGCACCUUUCAAGAATT against SULT4A1,inactive: -0.0628
3,GAUACGGAAUUAUACAGAATT against SLCO5A1,inactive: 0.272
4,GGACUAUGAUUCAACAACATT against CBR4,inactive: -0.66
5,CUUAUGAUCUGGGAUCAGATT against GZMB,inactive: -0.0378
6,GGAUGUGGCGGUUUCCUACTT against SULT1A2,inactive: 0.0541
7,GAGAAUAUCUGGAACCAGUTT against BDKRB1,inactive: 0.448
8,CCUUCACAGGAUCAACAGATT against ALDH1A1,inactive: -0.355
9,GCACUUUGUCAAGAUGAAATT against SHROOM4,inactive: 0.825
10,GCAAUAAUCCUGCUAUGGATT against ACSL4,inactive: -0.0582
11,GAUUUGGUUUCGUAACUUUTT against A2BP1,active: 1.17
12,GGAUUCAACUUUACAAGAATT against BTD,inactive: -0.165
13,CGAGAAUUCUUGACAGACUTT against GABRA2,inactive: -0.272
14,CAUGAAGAACAGUCAAGUATT against RNMT,inactive: -0.281
15,CGGACUAAUUGACUUCGCATT against MED12L,inactive: -0.0903
16,GGUACAACAGUGUCCUGUUTT against MFSD10,inactive: 0.0116
17,GCGUAUAAAUCAUGGUAGATT against ZNF793,inactive: 0.448
18,GAACAUCUCUUGUGGUAUUTT against SLC22A16,inactive: 0.0878
19,GCCCUUUGAUUGCGAGGAATT against ZNF275,inactive: 0.315
20,GCAGCCUUGUCACUUAUGATT against DCTN2,inactive: 0.339
